Measured values: publication PMC7819943, “Rice protein-binding microarrays: a tool to detect cis-acting elements near promoter regions in rice”
The other results are listed elsewhere or left out.

Protein sequences, listed by entry. Tags and fused reporters are not part of them.
UniProt Q0JBA9, entry or part of it: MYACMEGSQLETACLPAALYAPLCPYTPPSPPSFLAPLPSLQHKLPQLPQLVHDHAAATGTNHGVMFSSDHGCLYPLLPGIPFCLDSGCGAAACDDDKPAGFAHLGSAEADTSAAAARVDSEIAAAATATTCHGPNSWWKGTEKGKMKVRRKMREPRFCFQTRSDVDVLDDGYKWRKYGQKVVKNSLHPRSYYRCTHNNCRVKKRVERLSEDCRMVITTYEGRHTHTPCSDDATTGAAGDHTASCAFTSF

target: OsWRKY34 (Oryza sativa, UniProt Q0JBA9 1-250); experiment: protein-binding microarray (RPBM); PBS, 2% BSA, 51.3 ng/ul salmon testes DNA, 50 uM zinc acetate, 200 nM TF, 25 C, 1 h; high values mean tight binding; settings: protein: recombinant; tags: N-terminal polyhistidine and DsRed monomer fusion (pET32a); label: CyDye5-dUTP incorporated in the synthesized complementary strand; 3' TTTTT single-stranded linker to array surface; dsDNA, one strand shown
Procedure, shortened: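 Binding signal is defined as the fluorescence intensity of each feature in arbitrary units, read on an Axon 4000B scanner. Transcription factors with N-terminal polyhistidine and DsRed fusions came from E. coli BL21-CodonPlus and were purified on Ni–NTA. They were incubated at 200 nM for 1 h at 25 °C on a custom Agilent array that had been made double-stranded with Cy5-dUTP, with 50 µM zinc acetate present, and the array was washed.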

Row | Sequence | binding signal
1 | GTACACCACCGAAACCCTAATTAACCATTTCTCGCTCATCCGGAGTCACCTAGTGCAG | 8040 fluorescence intensity (a.u.)
2 | CCTCGTACGTGTTGGTGTTGCCAAGCCCAAGCCAGTAGTACGGAGTCACCTAGTGCAG | 8990 fluorescence intensity (a.u.)
3 | GGCCGTGTACTGACTCAGGGTTTACATTACCGGTTGACCACGGAGTCACCTAGTGCAG | 9730 fluorescence intensity (a.u.)
4 | TTTTTCCTGTGTTTTACAATCCTCTGTTTTGCACTTGCATCGGAGTCACCTAGTGCAG | 8830 fluorescence intensity (a.u.)
5 | TCAACCCAACAACCGCCGGTGCCGTCATTCTGCATCCCTCCGGAGTCACCTAGTGCAG | 12100 fluorescence intensity (a.u.)
6 | GTCTCAGTATCCTGCTCGTCCTAGTCTTCTTACTCCATCTCGGAGTCACCTAGTGCAG | 9140 fluorescence intensity (a.u.)
7 | TGGATCTTGTTGCCATCTCGGTTTTTCTTTTTTTCTTTTGCGGAGTCACCTAGTGCAG | 11000 fluorescence intensity (a.u.)
8 | TGGCCTGTTCACTTTGATGCTATTTTTAACCTTACCAAATCGGAGTCACCTAGTGCAG | 10700 fluorescence intensity (a.u.)
9 | ATCCTCGCTCACTTTCCATCTCACACGACGGCCACACTGACGGAGTCACCTAGTGCAG | 12700 fluorescence intensity (a.u.)
10 | ATATTCCTTACTTTTTAATTCCTAATTTCTATTTTTTTTCCGGAGTCACCTAGTGCAG | 8190 fluorescence intensity (a.u.)
11 | CCCATTCCAAGCTTTGACTTCTCACTAGCTTGACTACTGGCGGAGTCACCTAGTGCAG | 8040 fluorescence intensity (a.u.)
12 | GAGCTCCTACGCGTCGCCATCTCCTTCATCAACCACAAAACGGAGTCACCTAGTGCAG | 9980 fluorescence intensity (a.u.)
13 | AGGTGGGCCCGAAGTCTAAACCCTACTATTCCCAGATTCCCGGAGTCACCTAGTGCAG | 8200 fluorescence intensity (a.u.)
14 | ACTTTTCTACACACATAAACTTCTAACTTTTTCATCACATCGGAGTCACCTAGTGCAG | 13400 fluorescence intensity (a.u.)
15 | CATGGGAATTTTGGTGGGATGGGGATGGAGAATTGAGCAACGGAGTCACCTAGTGCAG | 8700 fluorescence intensity (a.u.)
16 | CACCTATGCGTGCCTAAGCGTGTGTTCGTTTCTTTCTAGCCGGAGTCACCTAGTGCAG | 9730 fluorescence intensity (a.u.)
17 | GCAAGTCTACTGTCTACCCCACTCGTCGCGCTTCAGAGTCCGGAGTCACCTAGTGCAG | 8990 fluorescence intensity (a.u.)
18 | GCGATTTAACTTTTTTTTTTCTCTGTGACATTTCGTTACCCGGAGTCACCTAGTGCAG | 9000 fluorescence intensity (a.u.)
19 | AGGGAGGCGTAGGTTGTGGTCGTTGTTGCGGTTTGGAGTTCGGAGTCACCTAGTGCAG | 8250 fluorescence intensity (a.u.)
20 | GTCTTCTAGCTGCAGCCAGTTTCATGCTTATCACCGCCTACGGAGTCACCTAGTGCAG | 8440 fluorescence intensity (a.u.)
21 | GTGCTGTTCTTAATAGAGTATTCCAACCTTATGAGTCTCACGGAGTCACCTAGTGCAG | 9790 fluorescence intensity (a.u.)

Reformatted as comma-separated lines: entries from further up
Row,Sequence,binding signal
2,CCTCGTACGTGTTGGTGTTGCCAAGCCCAAGCCAGTAGTACGGAGTCACCTAGTGCAG,8990 fluorescence intensity (a.u.)
3,GGCCGTGTACTGACTCAGGGTTTACATTACCGGTTGACCACGGAGTCACCTAGTGCAG,9730 fluorescence intensity (a.u.)
5,TCAACCCAACAACCGCCGGTGCCGTCATTCTGCATCCCTCCGGAGTCACCTAGTGCAG,12100 fluorescence intensity (a.u.)
6,GTCTCAGTATCCTGCTCGTCCTAGTCTTCTTACTCCATCTCGGAGTCACCTAGTGCAG,9140 fluorescence intensity (a.u.)
12,GAGCTCCTACGCGTCGCCATCTCCTTCATCAACCACAAAACGGAGTCACCTAGTGCAG,9980 fluorescence intensity (a.u.)
14,ACTTTTCTACACACATAAACTTCTAACTTTTTCATCACATCGGAGTCACCTAGTGCAG,13400 fluorescence intensity (a.u.)
15,CATGGGAATTTTGGTGGGATGGGGATGGAGAATTGAGCAACGGAGTCACCTAGTGCAG,8700 fluorescence intensity (a.u.)
17,GCAAGTCTACTGTCTACCCCACTCGTCGCGCTTCAGAGTCCGGAGTCACCTAGTGCAG,8990 fluorescence intensity (a.u.)
18,GCGATTTAACTTTTTTTTTTCTCTGTGACATTTCGTTACCCGGAGTCACCTAGTGCAG,9000 fluorescence intensity (a.u.)
19,AGGGAGGCGTAGGTTGTGGTCGTTGTTGCGGTTTGGAGTTCGGAGTCACCTAGTGCAG,8250 fluorescence intensity (a.u.)

Next entries

Row | Sequence | binding signal
22 | AAGTTTTCAACACTCCTCTTTCGTTTTCCGCATGCACGTTCGGAGTCACCTAGTGCAG | 8180 fluorescence intensity (a.u.)
23 | AAGGAGATAGTATAGGCTTTCATCGTTTCCTTTTTTTTCTCGGAGTCACCTAGTGCAG | 8040 fluorescence intensity (a.u.)
24 | CAGATCTCATCTCTCGGCCTGCCCTGCCCCTACGCACATTCGGAGTCACCTAGTGCAG | 9160 fluorescence intensity (a.u.)
25 | ATGCAGAATTATAAAACTGGTGGGAGGGAGGGAGTATTCCCGGAGTCACCTAGTGCAG | 9490 fluorescence intensity (a.u.)
26 | TGTACAAGCGCAAGAACGCGCTTTGCTCATTAACACACCACGGAGTCACCTAGTGCAG | 8120 fluorescence intensity (a.u.)
27 | GATGTACAATTTCCATTTCGTTATGTTCTTGACGTACTTGCGGAGTCACCTAGTGCAG | 8310 fluorescence intensity (a.u.)
28 | CCAACGTCGTACATCCCTCCACGTCATCGATCCGCGCCGCCGGAGTCACCTAGTGCAG | 9430 fluorescence intensity (a.u.)
29 | CACCTCGTTTTGCGTATCTTCTCAATCTTCTCTTTTCTTCCGGAGTCACCTAGTGCAG | 8820 fluorescence intensity (a.u.)
30 | ACTTCAATAAATATGTACTCCTTTTCATATAAGGGTTATTCGGAGTCACCTAGTGCAG | 8190 fluorescence intensity (a.u.)
31 | ATCATCTCGTCTCGTCAGTCAAATCATCATTTGGTCAACACGGAGTCACCTAGTGCAG | 12600 fluorescence intensity (a.u.)
32 | CCCGCCGCCGCGACGCCCGTCCGTTCCCGATCCGGCGGCCCGGAGTCACCTAGTGCAG | 9850 fluorescence intensity (a.u.)
33 | GGCTGGGATATAATAAGAGAGATGCTTCAACCTATGAAGACGGAGTCACCTAGTGCAG | 8150 fluorescence intensity (a.u.)
34 | AGTGGTGGTGAAGTGGGTGAGAAACTATCTTCTGTTCCTCCGGAGTCACCTAGTGCAG | 10200 fluorescence intensity (a.u.)
35 | GACATCACGACACGTCATCGCTGTTCCGCCACCTCTGCAGCGGAGTCACCTAGTGCAG | 9200 fluorescence intensity (a.u.)
36 | GCCCATATCACCGACAGGTACGTTTTTTTAAAAATTTTTCCGGAGTCACCTAGTGCAG | 9600 fluorescence intensity (a.u.)
37 | ATCCAACAATGTACTGCACTACTATCAACGTATATCATCACGGAGTCACCTAGTGCAG | 8920 fluorescence intensity (a.u.)
38 | ACGCCACAACCTTTTTTCCTGGCTAAGCTACTCCCTTAATCGGAGTCACCTAGTGCAG | 9620 fluorescence intensity (a.u.)
39 | CAGTTGCCATCTTACTTGCCTATGCAACTGCCCAACTACACGGAGTCACCTAGTGCAG | 8570 fluorescence intensity (a.u.)
40 | GCTCTTCACAATCATATGGCATTCTAGAAAGAATCTTTAGCGGAGTCACCTAGTGCAG | 8030 fluorescence intensity (a.u.)
41 | CTTTTGCTTGTCACCGGCTACAACTTGCCATTTTGCTCTTCGGAGTCACCTAGTGCAG | 12200 fluorescence intensity (a.u.)
42 | TACTTTGCTCTAATACACTTATGTTATGTGTAGGTTTTGCCGGAGTCACCTAGTGCAG | 9190 fluorescence intensity (a.u.)
